Results as given in PMC6718988, “Bioactivity and Bactericidal Mechanism of Histidine-Rich β-Hairpin Peptide Against Gram-Negative Bacteria” (International Journal of Molecular Sciences, 2019).
Where a SMILES comes first, the peptide text is derived from it. [ ]: non-standard residue; d: D form.

Tested on: bacterial cells versus human erythrocytes
Conditions: for TI(−), therapeutic index / TI(+), therapeutic index / TI(+,−), therapeutic index: MHC / GM of MIC, 256 μM used for >128; for TI(−), therapeutic index: Gram-negative; for TI(+), therapeutic index: Gram-positive; for TI(+,−), therapeutic index: all strains

| Compound | TI(−), therapeutic index | TI(+), therapeutic index | TI(+,−), therapeutic index | TI against Gram-negative bacteria relative to that of PG-1 (ratio of TI(−) of HV2 to TI(−) of PG-1) [times] |
| --- | --- | --- | --- | --- |
| N=C(N)NCCC[C@H](NC(=O)[C@H](CCCNC(=N)N)NC(=O)[C@H](Cc1ccccc1)NC(=O)[C@H](Cc1c[nH]cn1)NC(=O)[C@H](Cc1ccccc1)NC(=O)[C@H](Cc1c[nH]cn1)NC(=O)[C@H](Cc1ccccc1)NC(=O)CNC(=O)[C@H]1CCCN1C(=O)[C@H](Cc1ccccc1)NC(=O)[C@H](Cc1c[nH]cn1)NC(=O)[C@H](Cc1ccccc1)NC(=O)[C@H](Cc1c[nH]cn1)NC(=O)[C@H](Cc1ccccc1)NC(=O)[C@H](CCCNC(=N)N)NC(=O)[C@@H](N)CCCNC(=N)N)C(N)=O [HF2] (H-RRFHFHF[dP]GFHFHFRR-NH2; N-terminus assumed) | 2.00 | 1.59 | 1.85 | – |
| RGGRLCYCRRFCVCVGR-NH2 [PG-1, Protegrin-1, reference compound] | 1.26 | 0.79 | 1.08 | – |
| CC(C)[C@H](NC(=O)CNC(=O)[C@H]1CCCN1C(=O)[C@@H](NC(=O)[C@H](Cc1c[nH]cn1)NC(=O)[C@@H](NC(=O)[C@H](Cc1c[nH]cn1)NC(=O)[C@@H](NC(=O)[C@H](CCCNC(=N)N)NC(=O)[C@@H](N)CCCNC(=N)N)C(C)C)C(C)C)C(C)C)C(=O)N[C@@H](Cc1c[nH]cn1)C(=O)N[C@H](C(=O)N[C@@H](Cc1c[nH]cn1)C(=O)N[C@H](C(=O)N[C@@H](CCCNC(=N)N)C(=O)N[C@@H](CCCNC(=N)N)C(N)=O)C(C)C)C(C)C [HV2] (H-RRVHVHV[dP]GVHVHVRR-NH2; N-terminus assumed) | 35.9 | 1 | 10.88 | 28 |
| CC[C@H](C)[C@H](NC(=O)CNC(=O)[C@H]1CCCN1C(=O)[C@@H](NC(=O)[C@H](Cc1c[nH]cn1)NC(=O)[C@@H](NC(=O)[C@H](Cc1c[nH]cn1)NC(=O)[C@@H](NC(=O)[C@H](CCCNC(=N)N)NC(=O)[C@@H](N)CCCNC(=N)N)[C@@H](C)CC)[C@@H](C)CC)[C@@H](C)CC)C(=O)N[C@@H](Cc1c[nH]cn1)C(=O)N[C@H](C(=O)N[C@@H](Cc1c[nH]cn1)C(=O)N[C@H](C(=O)N[C@@H](CCCNC(=N)N)C(=O)N[C@@H](CCCNC(=N)N)C(N)=O)[C@@H](C)CC)[C@@H](C)CC [HI2] (H-RRIHIHI[dP]GIHIHIRR-NH2; N-terminus assumed) | 5.04 | 1 | 2.94 | – |
| N=C(N)NCCC[C@H](NC(=O)[C@H](CCCNC(=N)N)NC(=O)[C@H](Cc1c[nH]c2ccccc12)NC(=O)[C@H](Cc1c[nH]cn1)NC(=O)[C@H](Cc1c[nH]c2ccccc12)NC(=O)[C@H](Cc1c[nH]cn1)NC(=O)[C@H](Cc1c[nH]c2ccccc12)NC(=O)CNC(=O)[C@H]1CCCN1C(=O)[C@H](Cc1c[nH]c2ccccc12)NC(=O)[C@H](Cc1c[nH]cn1)NC(=O)[C@H](Cc1c[nH]c2ccccc12)NC(=O)[C@H](Cc1c[nH]cn1)NC(=O)[C@H](Cc1c[nH]c2ccccc12)NC(=O)[C@H](CCCNC(=N)N)NC(=O)[C@@H](N)CCCNC(=N)N)C(N)=O [HW2] (H-RRWHWHW[dP]GWHWHWRR-NH2; N-terminus assumed) | 2.25 | 3.17 | 2.52 | – |
